Measured values published in PubChem BioAssay AID248 (DTP/NCI, 2004).
The list does not hold the whole screen: it gathers tests that were run many times, whatever their T/C, doses with no T/C, and many T/C values between a quarter and a half above the control. Further doses and runs are listed elsewhere. T/C gives the treated animals as a percentage of the vehicle group. Some entries give survivors of the animals treated and no T/C: the source files T/C as zero there, which appears to mark a toxic dose or a test without result, not a measured value. Some doses without a T/C left all or most animals alive at the check, yet need not have been tolerated: survival well below the control is almost never listed, so the zero probably covers shortened survival too. Counts of survivors are from the toxicity check (mostly the fifth day) where no day follows; animals may have died later. Schedule codes are those of the source, taken here to give the interval after Q, in days (D) or hours (H), and the number of doses after X. Some doses were run more than once; the values are given in rising order. Some structures stand for samples that the source files as different forms (salt, stereo form or complex); doses refer to the form tested. Some schedule codes hold Z or #, which are not explained here. For survival time, this PubChem deposit counts one and a half times the control or more as active, and values a quarter to a half above the control carry no call in these data; other NCI protocols may use other cut-offs.

Tested on: L1210 leukemia ip in BDF1 mice, survival T/C
Experiment: NCI In Vivo Anticancer Drug Screen. Data for tumor model L1210 Leukemia (intraperitoneal) in B6D2F1 (BDF1) mice
Conditions: T/C endpoint: mean survival time, higher T/C = longer survival
[1] = dose: 100.0 mg/kg/injection, schedule: Q04DX002 (ip), vehicle: Klucel (hydroxypropylcellulose) (HPC)
[2] = dose: 200.0 mg/kg/injection, schedule: Q04DX002 (ip), vehicle: Klucel (hydroxypropylcellulose) (HPC)
[3] = dose: 400.0 mg/kg/injection, schedule: Q04DX002 (ip), vehicle: Klucel (hydroxypropylcellulose) (HPC)
[4] = dose: 50.0 mg/kg/injection, schedule: Q01DX009 (ip), vehicle: other
[5] = dose: 400.0 mg/kg/injection, schedule: Q01DX009 (ip), vehicle: saline with Tween-80
[6] = dose: 400.0 mg/kg/injection, schedule: Q04DX003 (ip), vehicle: Klucel (hydroxypropylcellulose) (HPC)
[7] = dose: 100.0 mg/kg/injection, schedule: Q01DX009 (ip), vehicle: saline with Tween-80
[8] = dose: 200.0 mg/kg/injection, schedule: Q01DX009 (ip), vehicle: saline
[9] = dose: 400.0 mg/kg/injection, schedule: Q01DX009 (ip), vehicle: saline
[10] = dose: 200.0 mg/kg/injection, schedule: Q01DX009 (ip), vehicle: saline with Tween-80
[11] = dose: 200.0 mg/kg/injection, schedule: Q04DX003 (ip), vehicle: saline with Tween-80
[12] = dose: 400.0 mg/kg/injection, schedule: Q04DX003 (ip), vehicle: saline with Tween-80
[13] = dose: 300.0 mg/kg/injection, schedule: Q01DX001 (ip), vehicle: other
[14] = dose: 400.0 mg/kg/injection, schedule: Q04DX003 (ip), vehicle: water
[15] = dose: 200.0 mg/kg/injection, schedule: Q01DX001 (ip), vehicle: saline
[16] = dose: 400.0 mg/kg/injection, schedule: Q01DX001 (ip), vehicle: saline

ClC1=C(Cl)C(Cl)(Cl)C1(Cl)Cl
survivor count (dose: 150.0 mg/kg/injection, schedule: Q01DX001 (ip), vehicle: carboxymethylcellulose (CMC)): 0 of 6
survivor count (dose: 300.0 mg/kg/injection, schedule: Q01DX001 (ip), vehicle: carboxymethylcellulose (CMC)): 0 of 6

CC(C)CC(=O)NC(C)C(=O)NC(Cc1ccccc1)C(=O)CCl (configuration not stated)
survivor count [1]: 3 of 3
survivor count [2]: 0 of 3
survivor count [3]: 0 of 3

Ic1ccccc1C[N+]12CN3CN(CN(C3)C1)C2
survivor count (dose: 400.0 mg/kg/injection, schedule: Q01DX009 (ip), vehicle: acetone): 1 of 6

N#CCOC(=O)c1ccc[nH]1
survivor count (dose: 75.0 mg/kg/injection, schedule: Q01DX001 (ip), vehicle: acetone): 0 of 6
survivor count (dose: 150.0 mg/kg/injection, schedule: Q01DX001 (ip), vehicle: acetone): 0 of 6
survivor count (dose: 300.0 mg/kg/injection, schedule: Q01DX001 (ip), vehicle: acetone): 0 of 6

CN(C)c1ccnc(Cl)n1
survivor count (dose: 500.0 mg/kg/injection, schedule: Q01DX Z (ip), vehicle: methylcellulose (MC)): 0 of 6

Nc1nc(N)c2cc(CNc3ccc(C(=O)NC(CC(=O)O)CC(=O)O)cc3)ccc2n1
T/C (dose: 12.5 mg/kg/injection, schedule: Q01DX009 (ip), vehicle: saline): 137 % of control
T/C (dose: 25.0 mg/kg/injection, schedule: Q01DX009 (ip), vehicle: saline): 144 % of control
T/C [4]: 143 % of control
T/C (dose: 89.0 mg/kg/injection, schedule: Q01DX001 (ip), vehicle: other): 142 % of control
T/C (dose: 200.0 mg/kg/injection, schedule: Q01DX001 (ip), vehicle: other): 141 % of control

Cc1cc(C)n2ncnc2n1
survivor count [5]: 0 of 6

CCCCCCCCCC(=O)N1CCCCC1CC (configuration not stated)
survivor count (dose: 400.0 mg/kg/injection, schedule: Q01DX009 (ip), vehicle: carboxymethylcellulose (CMC)): 0 of 3 and 5 of 6

O=C(/C=C(\CBr)c1ccc(-c2ccccc2)cc1)c1ccccc1
survivor count (dose: 200.0 mg/kg/injection, schedule: Q01DX001 (ip), vehicle: saline with Tween-80): 6 of 6

CC(C)c1cc(CN(C)C)cc(C(C)C)c1O
survivor count [6]: 0 of 6

Cc1cc(C)c(O)c(C)c1.[Hg]
survivor count (dose: 25.0 mg/kg/injection, schedule: Q01DX001 (ip), vehicle: Klucel (hydroxypropylcellulose) (HPC)): 2 of 3
survivor count (dose: 50.0 mg/kg/injection, schedule: Q01DX001 (ip), vehicle: Klucel (hydroxypropylcellulose) (HPC)): 0 of 3
survivor count (dose: 100.0 mg/kg/injection, schedule: Q01DX001 (ip), vehicle: Klucel (hydroxypropylcellulose) (HPC)): 0 of 3
survivor count (dose: 200.0 mg/kg/injection, schedule: Q01DX001 (ip), vehicle: Klucel (hydroxypropylcellulose) (HPC)): 0 of 3
survivor count (dose: 400.0 mg/kg/injection, schedule: Q01DX001 (ip), vehicle: Klucel (hydroxypropylcellulose) (HPC)): 0 of 3

CC(=O)Nc1ccc(OCCOC(=O)Nc2ccc(C)c([N+](=O)[O-])c2)cc1
survivor count [7]: 3 of 3

COC(=O)[CH]([Hg][CH](C(=O)OC)C(=O)OC)C(=O)OC
survivor count (dose: 12.5 mg/kg/injection, schedule: Q04DX002 (ip), vehicle: Klucel (hydroxypropylcellulose) (HPC)): 3 of 3
survivor count (dose: 25.0 mg/kg/injection, schedule: Q04DX002 (ip), vehicle: Klucel (hydroxypropylcellulose) (HPC)): 1 of 3
survivor count (dose: 50.0 mg/kg/injection, schedule: Q04DX002 (ip), vehicle: Klucel (hydroxypropylcellulose) (HPC)): 0 of 3
survivor count [1]: 0 of 3
survivor count [2]: 0 of 3
survivor count [3]: 0 of 3

Clc1nc(I)c(Cl)c(I)n1
survivor count [4]: 0 of 3
survivor count (dose: 100.0 mg/kg/injection, schedule: Q01DX009 (ip), vehicle: other): 0 of 3
survivor count (dose: 200.0 mg/kg/injection, schedule: Q01DX009 (ip), vehicle: other): 0 of 3

O=C1CC2c3ccccc3C1C1C(=O)OC(=O)C21 (configuration not stated)
survivor count [8]: 4 of 6
survivor count [9]: 1 of 6
survivor count (dose: 400.0 mg/kg/injection, schedule: Q04DX003 (ip), vehicle: saline): 0 of 6

c1ccc2c(c1)[nH]c1ccncc12
survivor count [10]: 0 of 6
survivor count [11]: 4 of 6
survivor count [5]: 0 of 6
survivor count [12]: 3 of 6

C[N+]1(C)C2CC(OC(=O)C(CO)c3ccccc3)CC1C1OC12 (configuration not stated)
survivor count (dose: 150.0 mg/kg/injection, schedule: Q01DX001 (ip), vehicle: other): 3 of 6
survivor count [13]: 0 of 6

CC12OC1C(=O)c1ccccc1C2=O (configuration not stated)
survivor count (dose: 20.0 mg/kg/injection, schedule: Q04DX003 (ip), vehicle: Klucel (hydroxypropylcellulose) (HPC)): 4 of 6

CC(=O)n1ncc2ccc(N)cc21
survivor count (dose: 200.0 mg/kg/injection, schedule: Q01DX009 (ip), vehicle: water): 1 of 6
survivor count [14]: 2 of 6

CC1(C)CCC(=NO)CC1
survivor count [13]: 1 of 6

COc1ccc(C(C#N)N(C)C)cc1OC (configuration not stated)
survivor count [15]: 2 of 4
survivor count [16]: 0 of 4

O=C(Sc1ccccc1)C1OC1(c1ccccc1)c1ccccc1 (configuration not stated)
survivor count [6]: 5 of 6

NC(N)=NCCN1C(c2ccccc2)C1c1ccccc1 (configuration not stated)
survivor count [7]: 1 of 6
survivor count [10]: 0 of 6
survivor count [5]: 0 of 6

CCC(O)C(CC(C)N(C)C)(c1ccccc1)c1ccccc1 (configuration not stated)
survivor count [15]: 0 of 4
survivor count [16]: 0 of 4

COc1cccc(/C=C2\N=C(c3ccccc3)OC2=O)c1
survivor count [7]: 6 of 6
survivor count [10]: 6 of 6

O=NN1CCCCC1
survivor count [16]: 0 of 4

Cc1cc(=O)oc2cc(OC(=O)Nc3ccc(F)c(Cl)c3)ccc12
survivor count (dose: 25.0 mg/kg/injection, schedule: Q01DX009 (ip), vehicle: Klucel (hydroxypropylcellulose) (HPC)): 0 of 3
survivor count (dose: 50.0 mg/kg/injection, schedule: Q01DX009 (ip), vehicle: Klucel (hydroxypropylcellulose) (HPC)): 0 of 3

CC(=O)Oc1ccc(/C=N/NC(N)=S)nc1
T/C (dose: 100.0 mg/kg/injection, schedule: Q04DX003 (ip), vehicle: saline with Tween-80): 135 % of control
T/C [11]: 135 % of control
T/C [12]: 127 % of control

CC(N)CNc1ccccc1 (configuration not stated)
survivor count (dose: 100.0 mg/kg/injection, schedule: Q04DX003 (ip), vehicle: water): 0 of 6
survivor count (dose: 200.0 mg/kg/injection, schedule: Q04DX003 (ip), vehicle: water): 0 of 6
survivor count [14]: 0 of 6

NC(CCC(=O)NC(CSC(c1ccccc1)(c1ccccc1)c1ccccc1)C(=O)NCC(=O)O)C(=O)O (configuration not stated)
T/C [8]: 137 % of control
survivor count (dose: 300.0 mg/kg/injection, schedule: Q01DX009 (ip), vehicle: saline): 5 of 8
survivor count [9]: 4 of 6

CNC(=O)Nc1ccccc1C(=O)NN
survivor count (dose: 400.0 mg/kg/injection, schedule: Q01DX009 (ip), vehicle: other): 2 of 6

NNC(=O)C1CC1
survivor count (dose: 100.0 mg/kg/injection, schedule: Q04DX003 (ip), vehicle: saline): 3 of 6
survivor count (dose: 200.0 mg/kg/injection, schedule: Q04DX003 (ip), vehicle: saline): 0 of 6
